This series can be described thus: ELISA (anti-CD39) of solCD39 in conditioned medium. To be noted: COS-1 cells. (An ELISA detects its analyte on a solid surface through an enzyme-linked reagent.)
The mark [1] stands for this setting: 10 cm plates, 5 days, 1x supernatant.
Where [2] appears, read: T175 flasks (30 mL), 5-day 1x supernatant.

B1: pIL2LTrim2: huIL2 leader with an intervening Ala-Ser-Ser linker preceding solCD39 (protein)
chain: TQNKALPENVKYGIVLDAGSSHTSLYIYKWPAEKENDTGVVHQVEECRVKGPGISKFVQKVNEIGIYLTDCMERAREVIPRSQHQETPVYLGATAGMRLLRMESEELADRVLDVVERSLSNYPFDFQGARIITGQEEGAYGWITINYLLGKFSQKTRWFSIVPYETNNQETFGALDLGGASTQVTFVPQNQTIESPDNALQFRLYGKDYNVYTHSFLCYGKDQALWQKLAKDIQVASNEILRDPCFHPGYKKVVNVSDLYKTPCTKRFEMTLPFQQFEIQGIGNYQQCHQSILELFNTSYCPYSQCAFNGIFLPPLQGDFGAFSAFYFVMKFLNLTSEKVSQEKVTEMMKKFCAQPWEEIKTSYAGVKEKYLSEYCFSGTYILSLLLQGYHFTADSWEHIHFIGKIQGSDAGWTLGYMLNLTNMIPAEQPLSTPLSHST
modifications: left off: small tags and cut ends
As to B1, the “[CD39] in CM” value by setting is: under setting [1], 0.21 µg/mL; under setting [2], 0.113 µg/mL.

B2: pIL2LSolCD39: untagged soluble human CD39 with huIL2 leader, 12 mature IL2 residues and three amino acid linker (SEQ ID NO:7) (protein)
chain: MALWIDRMQLLSCIALSLALVTNSAPTSSSTKKTQLTSSTQNKALPENVKYGIVLDAGSSHTSLYIYKWPAEKENDTGVVHQVEECRVKGPGISKFVQKVNEIGIYLTDCMERAREVIPRSQHQETPVYLGATAGMRLLRMESEELADRVLDVVERSLSNYPFDFQGARIITGQEEGAYGWITINYLLGKFSQKTRWFSIVPYETNNQETFGALDLGGASTQVTFVPQNQTIESPDNALQFRLYGKDYNVYTHSFLCYGKDQALWQKLAKDIQVASNEILRDPCFHPGYKKVVNVSDLYKTPCTKRFEMTLPFQQFEIQGIGNYQQCHQSILELFNTSYCPYSQCAFNGIFLPPLQGDFGAFSAFYFVMKFLNLTSEKVSQEKVTEMMKKFCAQPWEEIKTSYAGVKEKYLSEYCFSGTYILSLLLQGYHFTADSWEHIHFIGKIQGSDAGWTLGYMLNLTNMIPAEQPLSTPLSHST
Take B2: the “[CD39] in CM” value under setting [1] worked out at 0.75 µg/mL and the “[CD39] in CM” value under setting [2] worked out at 0.796 µg/mL.

B3: pIL2LTrim1: huIL2 leader joined to solCD39 with an intervening alanine residue (SEQ ID NO:27) (protein)
chain: MALWIDRMQLLSCIALSLALVTNSATQNKALPENVKYGIVLDAGSSHTSLYIYKWPAEKENDTGVVHQVEECRVKGPGISKFVQKVNEIGIYLTDCMERAREVIPRSQHQETPVYLGATAGMRLLRMESEELADRVLDVVERSLSNYPFDFQGARIITGQEEGAYGWITINYLLGKFSQKTRWFSIVPYETNNQETFGALDLGGASTQVTFVPQNQTIESPDNALQFRLYGKDYNVYTHSFLCYGKDQALWQKLAKDIQVASNEILRDPCFHPGYKKVVNVSDLYKTPCTKRFEMTLPFQQFEIQGIGNYQQCHQSILELFNTSYCPYSQCAFNGIFLPPLQGDFGAFSAFYFVMKFLNLTSEKVSQEKVTEMMKKFCAQPWEEIKTSYAGVKEKYLSEYCFSGTYILSLLLQGYHFTADSWEHIHFIGKIQGSDAGWTLGYMLNLTNMIPAEQPLSTPLSHST
B3: the “[CD39] in CM” value by setting is: under setting [1], 0.21 µg/mL; under setting [2], 0.143 µg/mL.
